# The other results are listed elsewhere or left out. The data scatter; read single values as rough.
# Amino acid sequences for entries named in this document (tags omitted). A change or cut given only in a name is not applied to a line headed by its entry. Residues count along the entry.
# UniProt Q9UJX3, 402-426: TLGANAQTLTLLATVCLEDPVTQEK
# UniProt P49419: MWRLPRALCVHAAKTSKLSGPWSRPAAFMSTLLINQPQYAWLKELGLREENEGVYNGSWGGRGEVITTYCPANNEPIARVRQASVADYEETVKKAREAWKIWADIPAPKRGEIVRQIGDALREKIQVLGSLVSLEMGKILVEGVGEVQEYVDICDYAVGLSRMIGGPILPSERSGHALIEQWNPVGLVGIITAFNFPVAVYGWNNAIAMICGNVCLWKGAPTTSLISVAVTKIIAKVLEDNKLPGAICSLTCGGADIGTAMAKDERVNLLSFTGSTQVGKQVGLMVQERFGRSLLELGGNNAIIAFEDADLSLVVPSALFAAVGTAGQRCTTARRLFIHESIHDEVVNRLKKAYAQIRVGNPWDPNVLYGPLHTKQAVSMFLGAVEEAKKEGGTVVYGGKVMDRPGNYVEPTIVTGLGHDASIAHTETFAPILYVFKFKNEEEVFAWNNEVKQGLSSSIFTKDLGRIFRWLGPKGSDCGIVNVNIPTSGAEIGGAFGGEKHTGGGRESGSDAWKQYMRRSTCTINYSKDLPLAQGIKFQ
# UniProt O95831, whole entry, looked up: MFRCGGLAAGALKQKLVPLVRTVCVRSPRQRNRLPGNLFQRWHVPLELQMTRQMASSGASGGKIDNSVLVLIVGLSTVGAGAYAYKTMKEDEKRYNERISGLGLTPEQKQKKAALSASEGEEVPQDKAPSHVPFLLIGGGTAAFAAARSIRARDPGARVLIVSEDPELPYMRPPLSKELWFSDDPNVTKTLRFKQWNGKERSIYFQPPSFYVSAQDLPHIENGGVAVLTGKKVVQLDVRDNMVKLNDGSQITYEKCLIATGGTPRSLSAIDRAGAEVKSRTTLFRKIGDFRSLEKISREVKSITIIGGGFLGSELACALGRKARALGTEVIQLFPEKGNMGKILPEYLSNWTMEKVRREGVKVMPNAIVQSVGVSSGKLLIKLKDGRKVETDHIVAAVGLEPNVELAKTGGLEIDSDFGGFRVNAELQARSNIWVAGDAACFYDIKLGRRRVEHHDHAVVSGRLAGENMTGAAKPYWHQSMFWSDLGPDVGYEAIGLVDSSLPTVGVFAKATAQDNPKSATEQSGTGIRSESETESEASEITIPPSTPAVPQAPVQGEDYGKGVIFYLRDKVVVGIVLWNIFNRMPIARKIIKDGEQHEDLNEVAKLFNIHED
# UniProt Q9NRZ5, 257-276: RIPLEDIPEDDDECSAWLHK
# UniProt P55265, 386-408: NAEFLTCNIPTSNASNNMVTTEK
# UniProt Q8TCU4, 419-439: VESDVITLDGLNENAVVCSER
# UniProt Q9H6R3: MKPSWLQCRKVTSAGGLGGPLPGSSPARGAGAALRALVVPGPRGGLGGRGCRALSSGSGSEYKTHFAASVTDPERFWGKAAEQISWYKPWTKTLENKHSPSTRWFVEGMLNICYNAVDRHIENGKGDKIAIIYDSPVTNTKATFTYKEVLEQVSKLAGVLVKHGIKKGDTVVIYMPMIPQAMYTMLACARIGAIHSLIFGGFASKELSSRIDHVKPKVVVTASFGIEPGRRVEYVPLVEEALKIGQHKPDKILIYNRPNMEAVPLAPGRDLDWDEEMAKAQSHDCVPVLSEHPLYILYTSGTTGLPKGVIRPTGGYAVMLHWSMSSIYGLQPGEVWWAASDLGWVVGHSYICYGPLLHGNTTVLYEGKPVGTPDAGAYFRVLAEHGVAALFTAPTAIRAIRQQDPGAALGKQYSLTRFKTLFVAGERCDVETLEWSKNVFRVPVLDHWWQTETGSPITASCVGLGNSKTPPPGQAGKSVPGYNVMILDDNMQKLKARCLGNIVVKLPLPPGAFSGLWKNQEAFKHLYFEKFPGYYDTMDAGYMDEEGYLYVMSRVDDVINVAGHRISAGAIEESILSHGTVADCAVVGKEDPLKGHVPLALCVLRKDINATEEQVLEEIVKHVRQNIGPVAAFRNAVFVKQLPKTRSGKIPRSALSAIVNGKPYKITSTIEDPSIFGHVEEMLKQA
# UniProt Q13443: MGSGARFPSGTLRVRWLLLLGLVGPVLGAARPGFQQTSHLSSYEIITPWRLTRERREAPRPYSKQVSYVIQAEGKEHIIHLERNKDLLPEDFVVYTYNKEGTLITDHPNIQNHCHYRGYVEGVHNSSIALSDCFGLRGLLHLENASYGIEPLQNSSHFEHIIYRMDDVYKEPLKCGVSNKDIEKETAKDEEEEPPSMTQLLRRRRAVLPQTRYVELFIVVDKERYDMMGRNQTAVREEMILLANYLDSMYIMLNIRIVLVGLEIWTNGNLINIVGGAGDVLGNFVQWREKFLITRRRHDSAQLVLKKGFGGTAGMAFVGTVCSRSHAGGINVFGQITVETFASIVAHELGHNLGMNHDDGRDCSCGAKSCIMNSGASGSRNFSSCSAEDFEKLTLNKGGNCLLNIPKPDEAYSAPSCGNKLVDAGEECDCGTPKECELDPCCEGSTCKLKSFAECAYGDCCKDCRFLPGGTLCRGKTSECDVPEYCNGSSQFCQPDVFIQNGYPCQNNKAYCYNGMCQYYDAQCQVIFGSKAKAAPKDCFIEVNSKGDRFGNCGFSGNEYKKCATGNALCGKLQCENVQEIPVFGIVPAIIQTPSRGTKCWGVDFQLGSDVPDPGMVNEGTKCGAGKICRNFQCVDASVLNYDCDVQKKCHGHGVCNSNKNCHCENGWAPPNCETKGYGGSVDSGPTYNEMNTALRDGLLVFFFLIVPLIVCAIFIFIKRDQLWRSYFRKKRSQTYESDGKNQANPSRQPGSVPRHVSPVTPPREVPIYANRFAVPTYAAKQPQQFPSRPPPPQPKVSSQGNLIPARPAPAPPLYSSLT
# UniProt Q96P47: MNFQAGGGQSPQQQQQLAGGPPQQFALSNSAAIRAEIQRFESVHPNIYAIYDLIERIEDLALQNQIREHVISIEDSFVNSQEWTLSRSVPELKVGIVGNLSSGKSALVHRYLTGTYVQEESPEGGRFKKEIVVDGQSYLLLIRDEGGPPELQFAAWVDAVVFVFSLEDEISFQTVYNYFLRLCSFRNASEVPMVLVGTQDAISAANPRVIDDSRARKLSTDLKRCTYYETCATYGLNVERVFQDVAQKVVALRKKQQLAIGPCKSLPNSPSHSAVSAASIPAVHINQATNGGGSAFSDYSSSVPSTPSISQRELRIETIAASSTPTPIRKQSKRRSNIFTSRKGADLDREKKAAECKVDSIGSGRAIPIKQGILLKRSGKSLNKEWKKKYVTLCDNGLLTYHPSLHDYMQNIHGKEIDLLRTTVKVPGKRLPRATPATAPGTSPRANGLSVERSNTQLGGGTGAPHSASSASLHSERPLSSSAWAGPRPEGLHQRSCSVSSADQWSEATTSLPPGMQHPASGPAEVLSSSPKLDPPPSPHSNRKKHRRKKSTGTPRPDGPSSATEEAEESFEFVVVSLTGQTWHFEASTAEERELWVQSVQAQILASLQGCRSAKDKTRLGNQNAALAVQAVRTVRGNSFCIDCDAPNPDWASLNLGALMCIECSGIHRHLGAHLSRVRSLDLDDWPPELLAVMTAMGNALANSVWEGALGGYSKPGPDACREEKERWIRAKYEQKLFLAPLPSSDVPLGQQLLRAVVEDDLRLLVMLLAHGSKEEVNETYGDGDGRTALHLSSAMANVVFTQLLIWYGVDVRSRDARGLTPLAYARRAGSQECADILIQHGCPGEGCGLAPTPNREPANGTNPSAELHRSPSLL
# UniProt Q9NUQ2: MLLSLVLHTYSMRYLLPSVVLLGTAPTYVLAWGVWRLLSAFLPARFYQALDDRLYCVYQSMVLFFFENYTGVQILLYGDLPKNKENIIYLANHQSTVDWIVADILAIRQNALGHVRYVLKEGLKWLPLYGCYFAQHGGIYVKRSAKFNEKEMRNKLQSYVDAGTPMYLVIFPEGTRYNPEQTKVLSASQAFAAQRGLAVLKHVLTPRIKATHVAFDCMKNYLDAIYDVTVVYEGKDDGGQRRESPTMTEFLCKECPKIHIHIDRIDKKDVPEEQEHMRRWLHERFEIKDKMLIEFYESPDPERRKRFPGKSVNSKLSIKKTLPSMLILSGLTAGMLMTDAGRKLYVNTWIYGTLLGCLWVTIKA
# UniProt Q02952, 1123-1148: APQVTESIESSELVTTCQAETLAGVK
# UniProt Q96BJ3: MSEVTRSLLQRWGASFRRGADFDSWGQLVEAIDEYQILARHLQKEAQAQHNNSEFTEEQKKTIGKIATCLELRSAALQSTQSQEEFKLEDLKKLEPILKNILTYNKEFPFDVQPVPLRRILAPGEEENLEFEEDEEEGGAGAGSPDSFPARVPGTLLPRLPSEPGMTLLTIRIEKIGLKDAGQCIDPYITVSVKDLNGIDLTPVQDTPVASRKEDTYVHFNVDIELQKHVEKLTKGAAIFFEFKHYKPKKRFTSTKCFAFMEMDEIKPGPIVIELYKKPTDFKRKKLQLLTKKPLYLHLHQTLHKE
# UniProt Q92667: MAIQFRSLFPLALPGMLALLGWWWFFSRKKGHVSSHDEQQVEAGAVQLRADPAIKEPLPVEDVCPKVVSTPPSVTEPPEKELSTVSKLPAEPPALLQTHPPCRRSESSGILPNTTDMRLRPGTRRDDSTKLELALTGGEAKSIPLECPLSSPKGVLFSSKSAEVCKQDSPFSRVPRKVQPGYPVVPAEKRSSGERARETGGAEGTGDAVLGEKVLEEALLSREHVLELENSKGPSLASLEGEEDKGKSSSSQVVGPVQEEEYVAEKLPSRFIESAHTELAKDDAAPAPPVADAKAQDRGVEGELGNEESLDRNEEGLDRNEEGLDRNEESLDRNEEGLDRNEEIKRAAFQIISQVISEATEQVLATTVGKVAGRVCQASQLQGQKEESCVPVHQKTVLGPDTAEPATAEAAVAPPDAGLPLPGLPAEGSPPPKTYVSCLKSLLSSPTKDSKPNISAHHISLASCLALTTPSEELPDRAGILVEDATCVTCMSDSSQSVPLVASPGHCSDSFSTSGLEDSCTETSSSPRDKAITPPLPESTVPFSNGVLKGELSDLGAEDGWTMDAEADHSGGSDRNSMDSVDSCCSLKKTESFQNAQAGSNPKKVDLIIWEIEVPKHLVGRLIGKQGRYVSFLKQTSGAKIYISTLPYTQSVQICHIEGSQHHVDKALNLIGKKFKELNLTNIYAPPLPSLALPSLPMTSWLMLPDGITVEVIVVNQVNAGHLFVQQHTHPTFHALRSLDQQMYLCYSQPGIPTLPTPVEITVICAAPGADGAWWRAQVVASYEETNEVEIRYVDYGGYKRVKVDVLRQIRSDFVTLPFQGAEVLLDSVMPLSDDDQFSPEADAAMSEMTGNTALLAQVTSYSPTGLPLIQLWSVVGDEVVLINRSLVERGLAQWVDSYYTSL
# UniProt Q8N302: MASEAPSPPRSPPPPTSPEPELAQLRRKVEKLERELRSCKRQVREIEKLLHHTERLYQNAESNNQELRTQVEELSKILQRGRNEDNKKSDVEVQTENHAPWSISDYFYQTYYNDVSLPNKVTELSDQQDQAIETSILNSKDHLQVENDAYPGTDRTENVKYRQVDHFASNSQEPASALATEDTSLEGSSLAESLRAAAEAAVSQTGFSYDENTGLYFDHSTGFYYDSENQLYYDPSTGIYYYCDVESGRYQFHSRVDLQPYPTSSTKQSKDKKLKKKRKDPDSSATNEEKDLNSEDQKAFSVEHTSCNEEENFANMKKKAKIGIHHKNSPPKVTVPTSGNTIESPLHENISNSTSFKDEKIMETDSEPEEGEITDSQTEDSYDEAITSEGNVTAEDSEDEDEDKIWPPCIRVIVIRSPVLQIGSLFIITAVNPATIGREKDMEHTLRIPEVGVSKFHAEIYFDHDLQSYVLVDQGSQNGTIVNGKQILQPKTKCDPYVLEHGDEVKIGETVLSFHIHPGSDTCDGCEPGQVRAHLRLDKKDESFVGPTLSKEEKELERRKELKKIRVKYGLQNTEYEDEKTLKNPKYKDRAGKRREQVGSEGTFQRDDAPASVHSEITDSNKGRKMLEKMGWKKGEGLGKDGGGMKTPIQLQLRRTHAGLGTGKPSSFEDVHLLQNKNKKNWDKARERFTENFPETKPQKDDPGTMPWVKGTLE
# UniProt Q6NS38: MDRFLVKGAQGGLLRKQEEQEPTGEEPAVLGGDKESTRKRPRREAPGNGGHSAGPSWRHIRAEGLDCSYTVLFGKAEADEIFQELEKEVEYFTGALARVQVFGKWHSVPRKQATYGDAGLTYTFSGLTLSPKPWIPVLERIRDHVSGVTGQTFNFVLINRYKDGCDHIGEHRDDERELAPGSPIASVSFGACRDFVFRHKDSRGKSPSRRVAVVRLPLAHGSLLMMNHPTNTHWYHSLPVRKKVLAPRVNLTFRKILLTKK
# UniProt Q13155: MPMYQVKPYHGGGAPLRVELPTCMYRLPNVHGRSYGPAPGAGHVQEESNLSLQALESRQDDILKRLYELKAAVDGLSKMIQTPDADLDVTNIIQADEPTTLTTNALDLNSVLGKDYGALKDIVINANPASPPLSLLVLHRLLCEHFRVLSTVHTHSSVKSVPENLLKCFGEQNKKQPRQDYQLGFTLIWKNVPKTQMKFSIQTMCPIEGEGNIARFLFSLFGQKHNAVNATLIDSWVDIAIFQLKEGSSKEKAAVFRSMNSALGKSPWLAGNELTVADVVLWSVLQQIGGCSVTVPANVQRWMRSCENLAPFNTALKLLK
# Compound: ClCC(=O)N[C@@H]1CCCc2ccccc12
# Assay: log2 mean competition ratio of IA-DTB cysteine labelling (DMSO/compound) (log2 ratio); higher = stronger cysteine engagement by compound
# Conditions: 50 µM; treatment time: 4 h; cell line lysate: HEK293T
# Description: (§1)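 IA-DTB competitive cysteine chemoproteomics in HEK293T RIPA lysate. Lysates were treated with compound 29 or 30 at 50 or 200 µM for 4 h, then IA-DTB (500 µM, 1 h), trypsin-digested, NeutrAvidin-enriched and analysed by diaPASEF. Competition ratio = intensity DMSO / intensity compound (n=4 treated, n=64 DMSO); binding: mean log2 CR ≥ 1 and p ≤ 0.05 plus QC filters. Target is the cysteine site.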
row,Target,log2 mean competition ratio
1,ANAPC7 C417 (UniProt Q9UJX3),-0.416
2,ALKBH1 C371 (UniProt Q13686),-0.247
3,AKT2 C297 (UniProt P31751),0.245
4,AFF3 C403,0.0852
5,ALDH9A1 C355 (UniProt P49189),-0.188
6,ALDH7A1 C522 (UniProt P49419),0.328
7,AIFM1 C256 (UniProt O95831),-0.0688
8,ADRM1 C121 (UniProt Q16186),-0.308

# Same assay, conditions: 200 µM; treatment time: 4 h; cell line lysate: HEK293T
row,Target,log2 mean competition ratio
1,ANAPC5 C203 (UniProt Q9UJX4),-0.00639
2,ACTN1 C480,0.031
3,AGPAT4 C270 (UniProt Q9NRZ5),0.235
4,ADCY9 C693 (UniProt O60503),0.252
5,AKAP8 C173 (UniProt O43823),0.154
6,ALDH1L2 C707 (UniProt Q3SY69),-0.249
7,ADAR C392 (UniProt P55265),-0.226
8,ADGRA2 C1147,-0.104
9,AIP C208 (UniProt O00170),-0.07
10,ALMS1 C2395 (UniProt Q8TCU4),0.157
11,ACSS3 C428 (UniProt Q9H6R3),-0.0145
12,AHNAK C1833 (UniProt Q09666),-0.281
13,ADAM9 C370 (UniProt Q13443),0.345
14,AGAP3 C263 (UniProt Q96P47),0.053
15,AKT2 C124 (UniProt P31751),-0.281
16,ALMS1 C436 (UniProt Q8TCU4),0.265
17,ALAD C223 (UniProt P13716),-0.0502
18,AGPAT5 C217 (UniProt Q9NUQ2),0.296
19,ACTA2 C219,0.0588

row,Target,log2 mean competition ratio
1,AKAP12 C1139 (UniProt Q02952),-0.392
2,ALX1 C71,0.214
3,ANK3 C4233 (UniProt Q12955),0.195
4,ANKHD1 C213,0.0335
5,AIDA C69 (UniProt Q96BJ3),-0.00617
6,ANAPC2 C179 (UniProt Q9UJX6),-0.303
7,AKAP1 C438 (UniProt Q92667),-0.0394
8,AGGF1 C494 (UniProt Q8N302),-0.314
9,ALKBH2 C67 (UniProt Q6NS38),-0.165
10,AIMP2 C168 (UniProt Q13155),0.184
11,ANAPC7 C417 (UniProt Q9UJX3),-0.0632
12,ALKBH1 C371 (UniProt Q13686),-0.0221
13,AKT2 C297 (UniProt P31751),0.276
14,AFF3 C403,0.112
15,ALDH9A1 C355 (UniProt P49189),-0.235
16,ALDH7A1 C522 (UniProt P49419),0.0177
17,AIFM1 C256 (UniProt O95831),-0.0416
18,ADRM1 C121 (UniProt Q16186),0.255

# Compound: ClCC(=O)N[C@H]1CCCc2ccccc12
# Assay: as above
# Conditions: 50 µM; treatment time: 4 h; cell line lysate: HEK293T
# Description: as §1
row,Target,log2 mean competition ratio
1,ANAPC5 C203 (UniProt Q9UJX4),0.0534
2,ACTN1 C480,0.981
3,AGPAT4 C270 (UniProt Q9NRZ5),1.03
4,ADCY9 C693 (UniProt O60503),-0.349
5,AKAP8 C173 (UniProt O43823),-0.028
6,ALDH1L2 C707 (UniProt Q3SY69),-0.182
7,ADAR C392 (UniProt P55265),0.46
8,ADGRA2 C1147,-0.0626
9,AIP C208 (UniProt O00170),0.281
10,ALMS1 C2395 (UniProt Q8TCU4),0.00795
11,ACSS3 C428 (UniProt Q9H6R3),-0.00398
12,AHNAK C1833 (UniProt Q09666),0.133
13,ADAM9 C370 (UniProt Q13443),-0.0319
14,AGAP3 C263 (UniProt Q96P47),0.734
15,AKT2 C124 (UniProt P31751),0.213
16,ALMS1 C436 (UniProt Q8TCU4),-0.374
17,ALAD C223 (UniProt P13716),0.134
18,AGPAT5 C217 (UniProt Q9NUQ2),0.366
19,ACTA2 C219,0.644

row,Target,log2 mean competition ratio
1,AKAP12 C1139 (UniProt Q02952),0.484
2,ALX1 C71,0.123
3,ANK3 C4233 (UniProt Q12955),0.42
4,ANKHD1 C213,-0.0998
5,AIDA C69 (UniProt Q96BJ3),0.116
6,ANAPC2 C179 (UniProt Q9UJX6),-0.184
7,AKAP1 C438 (UniProt Q92667),0.769
8,AGGF1 C494 (UniProt Q8N302),-0.416
9,ALKBH2 C67 (UniProt Q6NS38),-0.355
10,AIMP2 C168 (UniProt Q13155),-0.321
11,ANAPC7 C417 (UniProt Q9UJX3),-0.016
12,ALKBH1 C371 (UniProt Q13686),-0.42
13,AKT2 C297 (UniProt P31751),0.519
14,AFF3 C403,-0.0703
15,ALDH9A1 C355 (UniProt P49189),-0.111
16,ALDH7A1 C522 (UniProt P49419),0.256
17,AIFM1 C256 (UniProt O95831),0.0395
18,ADRM1 C121 (UniProt Q16186),-0.325

# Same assay, conditions: 200 µM; treatment time: 4 h; cell line lysate: HEK293T
row,Target,log2 mean competition ratio
1,ANAPC5 C203 (UniProt Q9UJX4),-0.148
2,ACTN1 C480,0.0781
3,AGPAT4 C270 (UniProt Q9NRZ5),-0.139
4,ADCY9 C693 (UniProt O60503),0.591
5,AKAP8 C173 (UniProt O43823),0.117
6,ALDH1L2 C707 (UniProt Q3SY69),-0.0765
7,ADAR C392 (UniProt P55265),-0.17
8,ADGRA2 C1147,0.00946
9,AIP C208 (UniProt O00170),-0.0187
10,ALMS1 C2395 (UniProt Q8TCU4),-0.0891
11,ACSS3 C428 (UniProt Q9H6R3),-0.497
12,AHNAK C1833 (UniProt Q09666),-0.166
13,ADAM9 C370 (UniProt Q13443),0.235
14,AGAP3 C263 (UniProt Q96P47),0.364
15,AKT2 C124 (UniProt P31751),-0.00528
16,ALMS1 C436 (UniProt Q8TCU4),0.00965
17,ALAD C223 (UniProt P13716),0.162
18,AGPAT5 C217 (UniProt Q9NUQ2),0.0669
19,ACTA2 C219,-0.12

row,Target,log2 mean competition ratio
1,AKAP12 C1139 (UniProt Q02952),-0.298
2,ALX1 C71,-0.378
3,ANK3 C4233 (UniProt Q12955),-0.154
4,ANKHD1 C213,-0.216
5,AIDA C69 (UniProt Q96BJ3),0.0498
6,ANAPC2 C179 (UniProt Q9UJX6),-0.423
7,AKAP1 C438 (UniProt Q92667),0.26
8,AGGF1 C494 (UniProt Q8N302),-0.199
9,ALKBH2 C67 (UniProt Q6NS38),-0.296
10,AIMP2 C168 (UniProt Q13155),0.215
11,ANAPC7 C417 (UniProt Q9UJX3),-0.142
12,ALKBH1 C371 (UniProt Q13686),-0.115
13,AKT2 C297 (UniProt P31751),0.646
14,AFF3 C403,0.000115
15,ALDH9A1 C355 (UniProt P49189),-0.232
16,ALDH7A1 C522 (UniProt P49419),0.0465
17,AIFM1 C256 (UniProt O95831),-0.0971
18,ADRM1 C121 (UniProt Q16186),0.335

# Reference: the supplement of paper PMC11732987, “Enantioselective OTUD7B fragment discovery through chemoproteomics screening and high-throughput optimisation” (Communications Chemistry, 2025)
